# Measurements reported in the supplement of paper PMC8256030.
# Several values for one entry are separate records, joined by “and”; a condition that tells them apart may be missing. Equal entries are not always repeated. The list shows a part of the results. Single values are uncertain here, since repeats match poorly.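 HEK293T cells were given each compound shortly before transfection with a reporter in which red mCherry is followed by the SARS-CoV-2 frameshift element and then GFP in the −1 frame, so GFP appears only after frameshifting.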
# Tested on: SARS-CoV-2 -1 PRF reporter mCherry-FSE-GFP(-1)
# Test: percent effect, decrease of GFP/mCherry ratio (-1 PRF reporter) relative to controls; higher = stronger frameshift inhibition
# Conditions: 10 µM; 24 h; HEK293T
row,Structure (SMILES),percent effect
1,CCC(C)C(CC)C(N)=O (configuration not stated) [valnoctamide],-11%
2,C[C@@H]1CCC[C@H](C)N1NC(=O)c1ccc(Cl)c(S(N)(=O)=O)c1 [clopamide],-1.58%
3,CC1=C(C(=O)OC(C)C)C(c2cccc([N+](=O)[O-])c2)C(C(=O)OC2CN(C(c3ccccc3)c3ccccc3)C2)=C(N)N1 (configuration not stated) [azelnidipine],-1.38%
4,CCC(C)(Oc1ccc(C2(c3ccc(OC(C)(CC)C(=O)O)cc3)CCCCC2)cc1)C(=O)O (configuration not stated) [clinofibrate],0.137%
5,CCCCC(CC)COC(=O)C(C#N)=C(c1ccccc1)c1ccccc1 (configuration not stated) [octocrilene],-10.1%
6,N#Cc1ccc(C2CCCc3cncn32)cc1 (configuration not stated) [fadrozole],-0.57%
7,CCCN[C@H]1CCc2nc(N)sc2C1 [Pramipexole],-5.2%
8,C=CC1=C(C(=O)O)N2C(=O)[C@@H](NC(=O)/C(=N\O)c3csc(N)n3)[C@H]2SC1 [Omnicef],-3.3%
9,CC[C@]12CN3CCc4c([nH]c5ccccc45)[C@@](C(=O)OC)(c4cc5c(cc4OC)N(C=O)[C@H]4[C@@](O)(C(=O)OC)[C@H](OC(C)=O)[C@]6(CC)C=CCN7CC[C@]54[C@@H]76)C[C@@H](C3)[C@H]1O2 [vinformide],1.56%
10,Cc1cccc(C)c1NC(=O)C1CCCCN1C (configuration not stated) [mepivacaine],-1.5%
11,O=C1C(=O)c2ccccc2C(O)=C1C1CCC(c2ccc(Cl)cc2)CC1 (configuration not stated) [Atovaquone],-4.26%
12,O=C(O)CCc1nc2ccccc2[nH]1 [procodazole],-0.538%
13,COc1ccc(C2CNC(=O)NC2)cc1O[C@H]1C[C@@H]2CC[C@H]1C2 [atizoram],-4.27%
14,C=CS(=O)(=O)O [apolate],-12.2%
15,C[C@]12CC[C@@H](O)C[C@@H]1CC[C@H]1[C@@H]3CC[C@H](C(=O)CO)[C@@]3(C)CC(=O)[C@@H]12 [alfadolone],-1.72%
16,C[C@@H]1C[C@H]2[C@@H]3CCC4=CC(=O)C=C[C@]4(C)[C@@]3(F)[C@@H](O)C[C@]2(C)[C@@]1(O)C(=O)COP(=O)(O)O,1.04%
17,Cn1c(=O)c2c(ncn2CCCNCC(O)c2cc(O)cc(O)c2)n(C)c1=O (configuration not stated) [reproterol],-8.41%
18,O=P1(NCCCl)OCCCN1CCCl (configuration not stated) [ifosfamide],-2.03% and -3.3%
19,CC1(C)[C@@H](O)CC[C@]2(C)[C@H]3C(=O)C=C4[C@@H]5C[C@@](C)(C(=O)O)CC[C@]5(C)CC[C@@]4(C)[C@]3(C)CC[C@@H]12,-3.64%
20,CCCCCCCCCCCCCCCCCC(=O)OC[C@@H](O)[C@H]1OC[C@H](O)[C@H]1O [sorbitan stearate],0.182%
21,COc1cc(C(=S)N2CCOCC2)ccc1O [vanitiolide],-10.3%
22,CCOc1ccc(NC(C)=O)cc1 [phenacetin],-4.58%

# An excerpt of these results, with tabs:
row	Structure (SMILES)	percent effect
14	C=CS(=O)(=O)O [apolate]	-12.2%
15	C[C@]12CC[C@@H](O)C[C@@H]1CC[C@H]1[C@@H]3CC[C@H](C(=O)CO)[C@@]3(C)CC(=O)[C@@H]12 [alfadolone]	-1.72%
